## Screening data, single-dose tests

Each number is a percent effect as filed. How 0% and 100% were set is not recorded. Most values in the screen are low, and negative values occur. The compounds are a random part of those screened. Two or more numbers in one place are separate tests of the same structure; such repeats can differ widely.

Mtb cholesterol medium: 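Growth of Mycobacterium tuberculosis over 4 days (cholesterol / DPPC medium with tyloxapol); the read-out is not stated. Tested at 50 µM. The record gives no direction; compounds that gave an IC50 in retests scored well above the rest, so higher reads as more growth inhibition. Of about 69,000 compounds tested this way, about 370 (0.54%) reached 50% or more in at least one test.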
Mtb glucose medium: 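Phenotypic screen: M. tuberculosis growth, glucose 7H9 medium, 3 days; the read-out is not stated. Tested at 50 µM. Direction is inferred from retests: higher values go with more growth inhibition. About 69,000 compounds were tested under these conditions; 1.1% (about 760) showed 50% or more at least once.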

{"structure": "CN1CCC(N2C[C@H](O)C[C@H]2c2nc(Cc3ccccc3)no2)CC1", "Mtb cholesterol medium": -0.7403, "Mtb glucose medium": "-14.82 & -0.7013"}
{"structure": "O=C(O)C(F)(F)F.O=C(O)C(F)(F)F.c1ccc(CN2CCOCC3(CCN(C4CCOCC4)C3)C2)cc1", "stereo": "stereo not drawn", "Mtb cholesterol medium": -19.7, "Mtb glucose medium": -18.96}
{"structure": "[H][C@@]12CN(S(C)(=O)=O)C[C@]1(C(=O)NC)CCC21CCNCC1", "Mtb cholesterol medium": 19.33, "Mtb glucose medium": 33.55}
{"structure": "O=C(CCc1cc(Cl)no1)N1CCCCC1CCN1CCOCC1", "stereo": "stereo not drawn", "Mtb cholesterol medium": -7.418, "Mtb glucose medium": -10.35}
{"structure": "[H][C@@]12CN(c3ncccn3)C[C@H](C(=O)NCCOC)[C@]1([H])CCO2", "Mtb cholesterol medium": -3.204, "Mtb glucose medium": -2.446}
{"structure": "CCN1C(=O)CC(c2cccnc2)C12CCN(c1ncc(F)cn1)CC2", "stereo": "stereo not drawn", "Mtb cholesterol medium": 2.462, "Mtb glucose medium": "-4.305 & -19.35"}
{"structure": "Cc1nnc(NCC2(c3ccccc3)CCOCC2)c(C#N)c1C", "Mtb cholesterol medium": 1.327, "Mtb glucose medium": "-1.358 & -18.65"}
{"structure": "CS(=O)(=O)NCCCSCc1cccc2cccnc12", "Mtb cholesterol medium": 16.76, "Mtb glucose medium": 27.03}
{"structure": "COCCOCCNc1cncc(Br)c1", "Mtb cholesterol medium": -5.209, "Mtb glucose medium": "1.394 & -3.161"}
{"structure": "CC1(c2nccs2)CCN(C(=O)CC2CCOCC2)CC1", "Mtb cholesterol medium": "0.9604 & 9.612", "Mtb glucose medium": 18.89}
{"structure": "CCN(Cc1ccc2c(c1)OCCO2)C(=O)NCCc1cnn(C)c1", "Mtb cholesterol medium": -12.06, "Mtb glucose medium": -3.609}
{"structure": "CS(=O)(=O)NC1CCCN(C(=O)Nc2ccccc2Cn2cccn2)C1", "stereo": "stereo not drawn", "Mtb cholesterol medium": -30.91, "Mtb glucose medium": -28.22}
{"structure": "O=S1(=O)NC2(CCCN(Cc3ccc(Cl)cc3)C2)COc2ccccc21", "stereo": "stereo not drawn", "Mtb cholesterol medium": -13.05, "Mtb glucose medium": -13.13}
{"structure": "O=C(O)C(F)(F)F.[H][C@@]12CCN(c3ncccn3)C[C@]1([H])[C@H](C(=O)NCC1CC1)CCO2", "Mtb cholesterol medium": 16.06, "Mtb glucose medium": "-2.661 & 8.181"}
{"structure": "Cc1cc(N(C)C)nc(C2(C)CCCN2C(=O)c2cncnc2C)n1", "stereo": "stereo not drawn", "Mtb cholesterol medium": -6.641, "Mtb glucose medium": -22.56}
{"structure": "CC(C)C(NC(=O)Nc1ccc(F)cc1)C(=O)N(C)C", "stereo": "stereo not drawn", "Mtb cholesterol medium": 2.987, "Mtb glucose medium": -3.069}
{"structure": "CN1CCN(c2nc(-c3cnn(C)c3)cs2)CC1", "Mtb cholesterol medium": -16.73, "Mtb glucose medium": 0.8786}
{"structure": "Cc1nonc1CC(=O)N1CCC2(CCCN(C3CCOCC3)C2=O)C1", "stereo": "stereo not drawn", "Mtb cholesterol medium": -1.667, "Mtb glucose medium": -10.06}
{"structure": "O=C(NCCc1ccn(-c2ccccc2)n1)N1CCCC(O)C1", "stereo": "stereo not drawn", "Mtb cholesterol medium": 10.81, "Mtb glucose medium": 23.82}
{"structure": "CC(C)NC(=O)Nc1ccc(CNCc2cccc(C#N)c2)cc1", "Mtb cholesterol medium": 9.685, "Mtb glucose medium": 15.86}
{"structure": "O=C(CCc1nc(-c2ccccc2)no1)N[C@H]1COC[C@@H]1N1CCCC1", "Mtb cholesterol medium": -12.98, "Mtb glucose medium": 8.819}
{"structure": "CN1CCc2c(C#N)c(NCCCN3CCOCC3)n3cnnc3c2C1.Cl.Cl", "Mtb cholesterol medium": 6.474, "Mtb glucose medium": "0.04094 & -2.257"}
{"structure": "CCCc1nc(C(=O)N2C[C@H](CO)C[C@H](CN3CCOCC3)C2)cs1", "Mtb cholesterol medium": -10.2, "Mtb glucose medium": "2.001 & -8.527"}
{"structure": "COCC1(NC(=O)Nc2nc(C)ns2)CCCC1", "Mtb cholesterol medium": -12.65, "Mtb glucose medium": -14.78}
{"structure": "CCn1/c(=N/C(=O)CSCC(=O)Nc2nccs2)sc2ccccc21", "Mtb cholesterol medium": -26.7, "Mtb glucose medium": "-0.4311 & -5.473"}
{"structure": "Cc1nccn1-c1ccc(N2CCC(NC(C)CC(C)C)CC2)cc1", "stereo": "stereo not drawn", "Mtb cholesterol medium": "-8.907 & -3.481", "Mtb glucose medium": -28.25}
{"structure": "CCN(CC)Cc1ccc(C(=O)NC2CCc3ccccc32)o1", "stereo": "stereo not drawn", "Mtb cholesterol medium": -6.943, "Mtb glucose medium": -11.73}
{"structure": "CC(C)Cc1nc(CN(C)c2cc(C(C)C)nc3ccnn23)no1", "Mtb cholesterol medium": 33.85, "Mtb glucose medium": 39.14}
{"structure": "CC(C)c1nnc2n1CCN(C(C(N)=O)c1ccc(F)cc1)C2", "stereo": "stereo not drawn", "Mtb cholesterol medium": -1.578, "Mtb glucose medium": "-17.76 & -4.756"}
{"structure": "O=C(NCCO)C1(Cc2ccccc2-c2ccncc2)CCOCC1", "Mtb cholesterol medium": 4.652, "Mtb glucose medium": 14.76}
{"structure": "COCCOC(=O)N1CC2=CC(C)(C)COc3ccc(OC)c(c32)C1", "Mtb cholesterol medium": 18.4, "Mtb glucose medium": 20.62}
{"structure": "CCS(=O)(=O)c1cccc(C(=O)Nc2cccc3c2C(=O)N(C)C3=O)c1", "Mtb cholesterol medium": 1.867, "Mtb glucose medium": "-18.36 & -9.585"}

Repeated from the top, 2 entries:

- CN1CCC(N2C[C@H](O)C[C@H]2c2nc(Cc3ccccc3)no2)CC1 | Mtb cholesterol medium: -0.7403%; Mtb glucose medium: -14.82% & -0.7013%
- O=C(O)C(F)(F)F.O=C(O)C(F)(F)F.c1ccc(CN2CCOCC3(CCN(C4CCOCC4)C3)C2)cc1 (stereo not drawn) | Mtb cholesterol medium: -19.7%; Mtb glucose medium: -18.96%

From ChEMBL document CHEMBL3988442, “University of Dundee, Small-Polar-MMV Screening Library” (2021).